US6358687

Protein sequences, listed by entry. Tags and fused reporters are not part of them. Residues count along the entry.
UniProt P49312, 1-196: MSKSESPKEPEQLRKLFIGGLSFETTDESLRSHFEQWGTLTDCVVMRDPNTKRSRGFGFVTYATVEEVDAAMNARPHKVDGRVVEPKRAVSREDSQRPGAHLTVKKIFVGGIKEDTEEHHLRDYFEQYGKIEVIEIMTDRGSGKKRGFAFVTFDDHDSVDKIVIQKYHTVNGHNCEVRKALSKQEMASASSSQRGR

What was measured:
[1] = target: rA1 (hnRNP A1) (Mus musculus) (UniProt P49312); assay: pull-down; settings: TS10 column; ternary complex with hTR-A; purified recombinant protein; protein details: glutathione-Sepharose purified; label: 5'-32P; single-stranded DNA
[2] = target: GST-A1 (hnRNP A1) (Mus musculus) (UniProt P49312); assay: footprint; settings: protects telomeric DNA from DNase I; purified recombinant protein; protein details: GST; label: 5'-32P; single-stranded DNA
[3] = target: GST-A1 (hnRNP A1) (Mus musculus) (UniProt P49312); assay: inhibition of the protein; settings: inhibits telomerase extension in HeLa S100; purified recombinant protein; protein details: GST; label: 5'-32P; single-stranded DNA
UP1 (hnRNP A1 fragment) = UP1 (hnRNP A1 fragment) (UniProt P49312); assay: inhibition of the protein; settings: purified recombinant protein, protein details: GST removed by thrombin, single-stranded DNA
[4] = tested on: GST-UP1 delta2 (RRM2 deleted) RRM2 deleted (BglII fill-in); assay: inhibition of the protein; settings: does not prevent telomerase extension; purified recombinant protein; protein details: GST; label: 5'-32P; single-stranded DNA
[5] = 8 uM UP1 inhibits telomerase extension

Sequence	binding result [1]	functional effect [2]	functional effect [3]	functional effect (UP1 (hnRNP A1 fragment); inhibits telomerase extension, also protects from DNase I, exonuclease I and Bal31, and represses TdT, label: 5'-32P)	functional effect [4]	functional effect (UP1 (hnRNP A1 fragment); [5])
TTAGGGTTAGGGTTAGGGTTAGGGTTAGGGTTAGGGTTAGGGTTAGGGTTAGGGTTAGGG [TS10]	binds	active	active	active	not active	
AATCCGTCGAGTAGGGTT [TS1]						active
AATCCGTCGAGCAGAGTT [TS]						active

For some of these results: The exact form of at least one protein or probe is not confirmed. For some of these results: A negative result means that nothing was seen under these conditions.
